Test: general procedure: Fmoc solid-phase peptide synthesis; HMP resin; DCC-mediated HOBT ester activation in NMP; HBTU/HOBt/DIEA for the glycosylated a
Settings: whole synthesis, RP-HPLC and ESI-MS

H2N-Gly-Lys-Pro-Arg-Pro-Tyr-Ser-Pro-Arg-Pro-Thr(α-D-GalNAc)-Ser-His-Pro-Arg-Pro-Ile-Arg-Val-OH
crude HPLC purity: ˜95%
